Source: article PMC12148954
These are yes or no findings as the source states them, for the method shown. Binding seen in cells or lysates may run through a third protein. Some entries that bind do so weakly or less than the wild type.

The chains behind the UniProt entries cited, without tags or fusion partners.
UniProt Q96CV9: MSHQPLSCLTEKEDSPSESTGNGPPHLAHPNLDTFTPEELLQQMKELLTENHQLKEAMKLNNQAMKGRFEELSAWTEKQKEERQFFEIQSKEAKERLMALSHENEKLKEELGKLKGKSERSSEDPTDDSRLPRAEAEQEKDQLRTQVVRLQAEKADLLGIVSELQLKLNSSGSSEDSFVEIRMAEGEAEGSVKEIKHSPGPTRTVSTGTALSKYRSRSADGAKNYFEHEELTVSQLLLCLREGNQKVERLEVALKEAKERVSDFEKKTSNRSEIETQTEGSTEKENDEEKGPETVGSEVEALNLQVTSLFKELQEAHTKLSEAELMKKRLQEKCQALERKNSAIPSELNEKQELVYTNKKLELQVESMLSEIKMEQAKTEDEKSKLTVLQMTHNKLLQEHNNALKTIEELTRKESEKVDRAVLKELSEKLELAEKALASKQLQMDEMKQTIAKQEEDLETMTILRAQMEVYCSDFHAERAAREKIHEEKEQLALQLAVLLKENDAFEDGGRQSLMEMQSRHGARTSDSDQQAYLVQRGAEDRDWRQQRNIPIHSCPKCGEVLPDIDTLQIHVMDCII

Legend:
[1] = target: T1, mixed lineage kinase domain‐like (MLKL) protein (human (endogenous in HeLa or HCE cells)) (UniProt Q8NB16); experiment: co-IP; endogenous proteins; Optn +/+ cells with or without 1 MOI HSV-1 for 24 h; immunoprecipitation by MLKL antibody, IgG as control; IP buffer 250 mM NaCl, 50 mM Tris, .5 mM EDTA, .5% NP-40; protein A/G beads, 4°C overnight; blot for OPTN
T1 sequence: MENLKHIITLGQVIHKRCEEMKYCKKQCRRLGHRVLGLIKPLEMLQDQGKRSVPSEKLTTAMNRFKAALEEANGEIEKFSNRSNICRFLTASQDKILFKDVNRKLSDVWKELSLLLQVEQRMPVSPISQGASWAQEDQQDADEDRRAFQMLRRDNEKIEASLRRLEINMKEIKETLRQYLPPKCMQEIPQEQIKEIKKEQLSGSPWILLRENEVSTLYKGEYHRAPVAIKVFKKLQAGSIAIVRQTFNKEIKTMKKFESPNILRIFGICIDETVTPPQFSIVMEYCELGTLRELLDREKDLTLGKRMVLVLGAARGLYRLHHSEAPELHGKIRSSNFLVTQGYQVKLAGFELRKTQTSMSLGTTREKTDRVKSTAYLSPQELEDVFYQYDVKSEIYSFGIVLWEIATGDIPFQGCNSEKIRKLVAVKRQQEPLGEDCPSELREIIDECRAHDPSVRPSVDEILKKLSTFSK

[2] = target: T1, mixed lineage kinase domain‐like (MLKL) protein (human (endogenous in HeLa or HCE cells)); experiment: co-IP; Optn -/- cells transfected with empty vector, full-length OPTN or OPTN 1-424 and infected with 1 MOI HSV-1 for 24 h; immunoprecipitation after transfection, blots for OPTN and MLKL; precipitating antibody not stated

binding [1]	binding [2]	Substance
binds		Optineurin (OPTN), endogenous (from UniProt Q96CV9 1-577)
	binds	full‐length OPTN (expressed from a plasmid) (from UniProt Q96CV9 1-577)
